Some of the results follow.
Assays:
Experiment in all cases: glycan array binding signal (z-score within array); higher = stronger binding
Conditions in all cases: glycan notation: IUPAC condensed, linker removed
[1] = molecular target: Man(a1-3)[Man(a1-6)]Man(a1-6)[Man(a1-3)]Man
Method in brief: (§1)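 The binding signal is a Z-score computed within each array. Data were drawn from 3228 arrays in the Consortium for Functional Glycomics database, restricted to those with a known protein sequence. Scores were averaged over arrays of the same protein sequence at different concentrations or buffers, and over linkers, and negative values can be taken as non-binding.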

[2] = molecular target: Man(a1-3)[Man(a1-6)]Man(a1-6)[Man(a1-3)]Man(b1-4)GlcNAc(b1-4)GlcNAc
Method in brief: as §1

[3] = molecular target: Man(a1-3)[Man(a1-6)]Man(b1-4)GlcNAc(b1-4)GlcNAc
Method in brief: as §1

[4] = molecular target: Man(a1-3)[Man(a1-6)]Man(b1-4)GlcNAc(b1-4)[Fuc(a1-6)]GlcNAc
Method in brief: as §1

Man(a1-6)Man = molecular target: Man(a1-6)Man
Method in brief: as §1

Man(b1-4)GlcNAc = molecular target: Man(b1-4)GlcNAc
Method in brief: as §1

MurNAc(b1-4)GlcNAc = molecular target: MurNAc(b1-4)GlcNAc
Method in brief: as §1

Neu5Ac(a2-3)Gal = molecular target: Neu5Ac(a2-3)Gal
Method in brief: as §1

[5] = molecular target: Neu5Ac(a2-3)Gal(b1-3)GalNAc
Method in brief: as §1

[6] = molecular target: Neu5Ac(a2-3)Gal(b1-3)GalNAc(b1-3)Gal(a1-4)Gal(b1-4)Glc
Method in brief: as §1

[7] = molecular target: Neu5Ac(a2-3)Gal(b1-3)GalNAc(b1-4)[Neu5Ac(a2-3)]Gal(b1-4)Glc
Method in brief: as §1

[8] = molecular target: Neu5Ac(a2-3)Gal(b1-3)GalNAc(b1-4)[Neu5Ac(a2-8)Neu5Ac(a2-3)]Gal(b1-4)Glc
Method in brief: as §1

[9] = molecular target: Neu5Ac(a2-3)Gal(b1-3)GalNAc6S
Method in brief: as §1

[10] = molecular target: Neu5Ac(a2-3)Gal(b1-3)GlcNAc
Method in brief: as §1

[11] = molecular target: Neu5Ac(a2-3)Gal(b1-3)GlcNAc(b1-2)Man
Method in brief: as §1

[12] = molecular target: Neu5Ac(a2-3)Gal(b1-3)GlcNAc(b1-2)Man(a1-3)[GlcNAc(b1-4)][Neu5Ac(a2-3)Gal(b1-3)GlcNAc(b1-2)Man(a1-6)]Man(b1-4)GlcNAc(b1-4)GlcNAc
Method in brief: as §1

[13] = molecular target: Neu5Ac(a2-3)Gal(b1-3)GlcNAc(b1-2)Man(a1-3)[Neu5Ac(a2-3)Gal(b1-3)GlcNAc(b1-2)Man(a1-6)]Man(b1-4)GlcNAc(b1-4)GlcNAc
Method in brief: as §1

[14] = molecular target: Neu5Ac(a2-3)Gal(b1-3)GlcNAc(b1-2)[Neu5Ac(a2-3)Gal(b1-3)GlcNAc(b1-4)]Man(a1-6)[Neu5Ac(a2-3)Gal(b1-3)GlcNAc(b1-2)Man(a1-3)]Man(b1-4)GlcNAc(b1-4)GlcNAc
Method in brief: as §1

[15] = molecular target: Neu5Ac(a2-3)Gal(b1-3)GlcNAc(b1-3)Gal(b1-3)GlcNAc
Method in brief: as §1

[16] = molecular target: Neu5Ac(a2-3)Gal(b1-3)GlcNAc(b1-3)Gal(b1-4)GlcNAc
Method in brief: as §1

[17] = molecular target: Neu5Ac(a2-3)Gal(b1-3)GlcNAc(b1-3)GalNAc
Method in brief: as §1

[18] = molecular target: Neu5Ac(a2-3)Gal(b1-3)GlcNAc(b1-4)Gal(b1-4)Glc
Method in brief: as §1

[19] = molecular target: Neu5Ac(a2-3)Gal(b1-3)GlcNAc(b1-6)GalNAc
Method in brief: as §1

[20] = molecular target: Neu5Ac(a2-3)Gal(b1-3)GlcNAc6S
Method in brief: as §1

[21] = molecular target: Neu5Ac(a2-3)Gal(b1-3)[Fuc(a1-4)]GlcNAc
Method in brief: as §1

[22] = molecular target: Neu5Ac(a2-3)Gal(b1-3)[Fuc(a1-4)]GlcNAc(b1-3)Gal(b1-3)[Fuc(a1-4)]GlcNAc
Method in brief: as §1

[23] = molecular target: Neu5Ac(a2-3)Gal(b1-3)[Fuc(a1-4)]GlcNAc(b1-3)Gal(b1-4)[Fuc(a1-3)]GlcNAc
Method in brief: as §1

[24] = molecular target: Neu5Ac(a2-3)Gal(b1-3)[GlcNAc(b1-6)]GalNAc
Method in brief: as §1

[25] = molecular target: Neu5Ac(a2-3)Gal(b1-3)[Neu5Ac(a2-6)]GalNAc
Method in brief: as §1

[26] = molecular target: Neu5Ac(a2-3)Gal(b1-3)[Neu5Ac(a2-6)]GlcNAc(b1-3)[Fuc(a1-3)[Gal(b1-4)]GlcNAc(b1-6)]Gal(b1-4)Glc
Method in brief: as §1

[27] = molecular target: Neu5Ac(a2-3)Gal(b1-3)]Neu5Ac(a2-3)Gal(b1-4)]GlcNAc
Method in brief: as §1

Neu5Ac(a2-3)Gal(b1-4)Glc = molecular target: Neu5Ac(a2-3)Gal(b1-4)Glc
Method in brief: as §1

[28] = molecular target: Neu5Ac(a2-3)Gal(b1-4)GlcNAc
Method in brief: as §1

[29] = molecular target: Neu5Ac(a2-3)Gal(b1-4)GlcNAc(b1-2)Man
Method in brief: as §1

[30] = molecular target: Neu5Ac(a2-3)Gal(b1-4)GlcNAc(b1-2)Man(a1-3)[GlcNAc(b1-4)][Neu5Ac(a2-3)Gal(b1-4)GlcNAc(b1-2)Man(a1-6)]Man(b1-4)GlcNAc(b1-4)GlcNAc
Method in brief: as §1

[31] = molecular target: Neu5Ac(a2-3)Gal(b1-4)GlcNAc(b1-2)Man(a1-3)[Neu5Ac(a2-3)Gal(b1-4)GlcNAc(b1-2)Man(a1-6)]Man(b1-4)GlcNAc(b1-4)GlcNAc
Method in brief: as §1

[32] = molecular target: Neu5Ac(a2-3)Gal(b1-4)GlcNAc(b1-2)Man(a1-3)[Neu5Ac(a2-3)Gal(b1-4)GlcNAc(b1-2)Man(a1-6)]Man(b1-4)GlcNAc(b1-4)[Fuc(a1-6)]GlcNAc
Method in brief: as §1

[33] = molecular target: Neu5Ac(a2-3)Gal(b1-4)GlcNAc(b1-2)Man(a1-3)[Neu5Ac(a2-6)Gal(b1-4)GlcNAc(b1-2)Man(a1-6)]Man(b1-4)GlcNAc(b1-4)GlcNAc
Method in brief: as §1

B1: ArathEULS3 TAP (Arabidopsis thaliana) (protein)
chain: IDENLYFQGGSMDEKTTGWRGGHVVEGLAGELEQLRARLEHHPQGQREPGGGGSLEITSLYKKAGFMEHHHQHHRHHQRDDGEDDRQSFGVPPPHVDAPPQPHGLYQSQPHFDPYAPTPQAPAPYRSETQFEPHAPPPYRSEPYFETPAPPPSFGHVSHVGHQSPNESYPPEHHRYGGYQQPSNSLLESHGDHSGVTHVAHHSSNQPQSSSGVYHKPDENRLPDNLAGLAGRATVKVYSKAEPNYNLTIRDGKVILAPADPSDEAQHWYKDEKYSTKVKDADGHPCFALVNKATGEAMKHSVGATHPVHLIRYVPDKLDESVLWTESKDFGDGYRTIRMVNNTRLNVDAYHGDSKSGGVRDGTTIVLWDWNKGDNQLWKIFPF
- glycan array binding signal (z-score) [1]: 1.16
- glycan array binding signal (z-score) [2]: 3.03
- glycan array binding signal (z-score) [3]: -0.083
- glycan array binding signal (z-score) [4]: -0.665
- glycan array binding signal (z-score) (Man(a1-6)Man): -1.26
- glycan array binding signal (z-score) (Man(b1-4)GlcNAc): -0.658
- glycan array binding signal (z-score) (MurNAc(b1-4)GlcNAc): 0.198
- glycan array binding signal (z-score) (Neu5Ac(a2-3)Gal): -1.33
- glycan array binding signal (z-score) [5]: -0.618
- glycan array binding signal (z-score) [6]: 1.23
- glycan array binding signal (z-score) [7]: -0.343
- glycan array binding signal (z-score) [8]: -0.79
- glycan array binding signal (z-score) [9]: -1.43
- glycan array binding signal (z-score) [10]: 0.275
- glycan array binding signal (z-score) [11]: -1.3
- glycan array binding signal (z-score) [12]: -1.32
- glycan array binding signal (z-score) [13]: -1.49
- glycan array binding signal (z-score) [14]: 1.77
- glycan array binding signal (z-score) [15]: 1.15
- glycan array binding signal (z-score) [16]: -0.43
- glycan array binding signal (z-score) [17]: 1.62
- glycan array binding signal (z-score) [18]: -1.16
- glycan array binding signal (z-score) [19]: 1.63
- glycan array binding signal (z-score) [20]: 0.337
- glycan array binding signal (z-score) [21]: 0.016
- glycan array binding signal (z-score) [22]: 0.835
- glycan array binding signal (z-score) [23]: -0.791
- glycan array binding signal (z-score) [24]: -0.082
- glycan array binding signal (z-score) [25]: -1.61
- glycan array binding signal (z-score) [26]: 2.31
- glycan array binding signal (z-score) [27]: 0.254
- glycan array binding signal (z-score) (Neu5Ac(a2-3)Gal(b1-4)Glc): 0.843
- glycan array binding signal (z-score) [28]: 0.351
- glycan array binding signal (z-score) [29]: -0.108
- glycan array binding signal (z-score) [30]: -1.52
- glycan array binding signal (z-score) [31]: -0.552
- glycan array binding signal (z-score) [32]: -0.12
- glycan array binding signal (z-score) [33]: -0.245
